In paper PMC8876908:

Tests used:
[1] = target: T1, JNK-interacting protein-2 (JIP2) (rat (endogenous in H9C2)) (UniProt G3V9M2); experiment: co-IP; cell lysates in Co-IP lysis buffer with protease inhibitor, 2 ug primary antibody or IgG, protein A/G beads overnight at 4°C, three washes, Western blotting
T1 sequence: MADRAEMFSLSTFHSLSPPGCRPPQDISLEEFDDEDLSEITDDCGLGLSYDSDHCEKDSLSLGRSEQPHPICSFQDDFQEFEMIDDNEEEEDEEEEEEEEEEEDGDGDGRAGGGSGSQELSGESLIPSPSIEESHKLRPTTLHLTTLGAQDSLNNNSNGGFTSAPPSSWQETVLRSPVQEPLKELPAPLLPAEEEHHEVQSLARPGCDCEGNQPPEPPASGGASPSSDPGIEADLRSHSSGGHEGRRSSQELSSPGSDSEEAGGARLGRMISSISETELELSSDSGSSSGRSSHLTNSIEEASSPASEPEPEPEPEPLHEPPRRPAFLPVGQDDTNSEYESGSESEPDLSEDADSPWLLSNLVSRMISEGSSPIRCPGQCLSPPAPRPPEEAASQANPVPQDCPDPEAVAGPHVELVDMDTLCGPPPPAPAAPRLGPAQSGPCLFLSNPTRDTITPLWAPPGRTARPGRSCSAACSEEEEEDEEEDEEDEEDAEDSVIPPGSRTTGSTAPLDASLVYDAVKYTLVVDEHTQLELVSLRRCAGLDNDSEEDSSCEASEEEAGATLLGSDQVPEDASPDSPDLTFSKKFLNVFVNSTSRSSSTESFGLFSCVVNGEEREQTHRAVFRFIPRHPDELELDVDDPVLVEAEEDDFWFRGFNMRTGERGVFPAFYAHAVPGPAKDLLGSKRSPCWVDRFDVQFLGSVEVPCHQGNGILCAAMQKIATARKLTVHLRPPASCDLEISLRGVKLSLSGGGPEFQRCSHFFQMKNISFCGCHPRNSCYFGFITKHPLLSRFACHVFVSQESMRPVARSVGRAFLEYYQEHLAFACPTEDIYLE

[2] = target: T2, Lysosomal associated membrane protein 1 (LAMP1) (UniProt P14562); experiment: as above
T2 sequence: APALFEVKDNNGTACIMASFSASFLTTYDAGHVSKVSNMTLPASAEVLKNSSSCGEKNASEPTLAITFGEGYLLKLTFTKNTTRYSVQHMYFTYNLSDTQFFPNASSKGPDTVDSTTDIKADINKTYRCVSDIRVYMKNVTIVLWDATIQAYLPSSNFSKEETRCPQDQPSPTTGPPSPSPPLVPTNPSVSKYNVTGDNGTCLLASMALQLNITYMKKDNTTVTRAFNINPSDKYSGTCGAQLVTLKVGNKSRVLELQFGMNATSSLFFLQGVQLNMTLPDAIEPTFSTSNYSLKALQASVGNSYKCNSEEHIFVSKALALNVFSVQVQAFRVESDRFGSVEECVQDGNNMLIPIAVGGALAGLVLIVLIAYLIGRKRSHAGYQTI

## C1q/tumor necrosis factor-related protein 3 (CTRP3)
[1]
  binding: binds
[2]
  binding: binds

These are yes or no findings as the source states them, for the method shown. In cells and extracts the contact can be indirect. A result given as binding can be weak or reduced; the word gives no strength.
